Assay results from patent US20200253888A1, “USE OF BIOMARKERS ASSOCIATED WITH LINE-1” (THE ARIZONA BOARD OF REGENTS ON BEHALF OF THE UNIVERSITY OF …, priority 2016, published 2020).
For some of these results: At least one compound was matched to its structure with a doubt left. Some of these results come from one statement about several compounds together.

Legend:
TGFBR1, Smad2/3 = test: Knockdown of TGFBR1, Smad2 and Smad3 by siRNA in HepG2 cells (immunoblot); type: cell-based, human; settings: HepG2, siRNA transfection
[1] = test system: L1 proteins (ORF1p and ORF2p); test: TGF-β1-mediated L1 expression in BEAS-2B lung cells with or without juglone (immunoblotting); type: cell-based; settings: BEAS-2B cells, 10 ng/ml TGF-β1 co-treated with 1 μM juglone
Experimental: In the experiments, non-malignant BEAS-2B lung cells were untreated or treated with 10 ng/ml TGF-β1 and co-treated with 1 μM juglone or ethanol and whole lyses were analyzed by immunoblotting for L1 proteins (ORF1p and ORF2p), vimentin, DNMT1 and GAPDH (loading control).

Row | Compound | reduction in the expression levels of the target compared with controls (TGFBR1, Smad2/3) | TGF-β1-mediated L1 expression [1]
1 | Smad2 siRNA: siRNA duplex for Smad2 (ID#115715), SEQ ID NO: 13 and 14 (chain 1 GCUUCUCUGAACAAACCAGTT; chain 2 CUGGUUUGUUCAGAGAAGCTG; chemistry not given here) | > 80% | –
2 | O=C1C=CC(=O)c2c(O)cccc21 [Juglone] | – | inhibits TGF-β1-mediated L1 expression
3 | Smad3 siRNA: siRNA duplex for Smad3 (ID#107877), SEQ ID NO: 15 and 16 (chain 1 GGCCCAGUGCAUAUGCAAUTT; chain 2 AUUGCAUAUGCACUGGGCCTC; chemistry not given here) | > 80% | –
4 | TGFBR1 siRNA: siRNA duplex for TGFBR1 (ID#s22939), SEQ ID NO: 11 and 12 (chain 1 5'-CAGUUACUGUGGAAGGAAUtt-3'; chain 2 5'-AUUCCUUCCACAGUAACUGTg-3'; as printed in the source, key not given here) | > 80% | –
